# Out of some 360,000 compounds screened, about 7,500 (2.1%) were called active. The inconclusive results got no clear call from the source; some entries with a clear call stand among them for comparison. Calls follow the shape of the dose curve; as a rule, active = well fitted inhibition curve with a large enough effect; inconclusive = small, poorly fitted or top-dose-only effect, or effect the other way; inactive = flat fitted curve, though single readings scatter. A potency beside an inconclusive call is a rough fit, not a confirmed value.
# Test: Nrf2 qHTS screen for inhibitors; also: nearly all actives have a fitted effect of over 60% in size
# Conditions: A549 ARE-Fluc reporter, luciferase luminescence, 18-24 h; activity change, negative = inhibition: at 46 µM (top of the series)
# Summary of the method: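 Two sequential reads on A549 ARE_Fluc cells exposed to compound for 18-24 h: a CellTiter-Fluor fluorescence read for viability, then a luciferase luminescence read for Nrf2/ARE activity.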
# % is scaled to controls: 0 for no effect and ±100 for the full control effect; potency is read from the fitted curve at half-maximal effect.
Structure (SMILES),Potency,"activity change, negative = inhibition"
N#C/C(=C/c1ccncc1)c1nc2ccccc2s1,"inconclusive: 18.4 µM [activator, partial curve]",–
CCN(CC)CCCN1C(=O)C(O)=C(C(=O)c2sc(C)nc2C)C1c1ccco1 (stereo unspecified),–,inactive: 17.1%
CSc1cccc(NC(=O)CN(C)S(=O)(=O)c2ccc(C)cc2)c1,"inconclusive: 18.4 µM [falling, partial curve]",–
O=c1[nH]c(SCc2ccccc2)nc2c1sc1ccccc12,"inconclusive: 3.66 µM [falling, full curve]",–
Cc1cc(=O)n(CNC(=O)c2ccccc2)c(=S)[nH]1,"inconclusive: 6.51 µM [activator, single point]",–
Cc1cc(NC(=O)/C=C/c2ccccc2)no1,"inconclusive: 4.11 µM [activator, single point]",–
Cc1ccc([N+](=O)[O-])cc1N=Nc1c(-c2ccc([N+](=O)[O-])cc2)[nH]n(C(N)=S)c1=O,"inconclusive: 2.06 µM [falling, full curve, poor fit]",–
Cc1ccc(NC(=O)C2CCCN(S(=O)(=O)c3ccc4c(c3)oc(=O)n4C)C2)nc1 (stereo unspecified),"inconclusive: 8.2 µM [falling, partial curve, poor fit]",–
Cc1nc(S/C(=C/c2ccc(-c3cc(Cl)ccc3C)o2)C(=O)O)n[nH]1,"inconclusive: 32.6 µM [falling, single point]",–
Cc1cc(C)cc(C(=O)NC(=S)Nc2ccc(Cc3ccncc3)cc2)c1,"inconclusive: 29.1 µM [falling, single point]",–
Fc1cccc(CSc2ccc(-c3ccco3)nn2)c1,–,inactive: 27.6%
O=C(Nc1cc2c3c(c1)CC(=O)N3CCC2)C1CCCCC1,"inconclusive: 29.1 µM [falling, single point]",–
CC(C)Sc1nc(-c2ccccc2)cc(=O)[nH]1,–,inactive: -11.9%
Cc1ccc(S(=O)(=O)c2nnn3c2nc(N2CCOCC2)c2sccc23)cc1C,"inconclusive: 29.1 µM [falling, single point]",–
CN(C)S(=O)(=O)N(CC(=O)N1CCC(Cc2ccccc2)CC1)c1ccccc1,"inconclusive: 29.1 µM [falling, single point]",–
COc1ccc([C@H]2CC(=O)C=C(c3ccc(NC(C)=O)cc3)C2)cc1OC,"inconclusive: 14.6 µM [falling, partial curve, poor fit]",–
O=C(/C=C/c1ccc([N+](=O)[O-])o1)NNC(=O)c1ccc(F)cc1,"inconclusive: 2.91 µM [activator, single point]",–
COc1cccc(-c2coc3cc4oc(=O)c(CCC(=O)O)c(C)c4cc23)c1,"inconclusive: 20.6 µM [falling, partial curve, poor fit]",–
O=C(NC(=S)NCc1ccco1)c1ccc(Br)cc1,–,inactive: 1.97%
Cc1ccc(-n2ncc3c(=O)n(CC#N)cnc32)cc1,"inconclusive: 23.1 µM [activator, partial curve, poor fit]",–
COc1ccc(S(=O)(=O)N/N=C\c2ccc([N+](=O)[O-])o2)c(OC)c1,–,inactive: -5.03%
COc1cc([N+](=O)[O-])ccc1NC(=O)Nc1ccc2c(c1)OCCO2,"inconclusive: 18.4 µM [falling, single point]",–

Structure (SMILES),Potency,"activity change, negative = inhibition"
CC(C)Oc1ccc(Nc2ncnc3ccccc23)cc1,"inconclusive: 0.366 µM [activator, full curve, poor fit]",–
Nc1nc2n[nH]nc2c(=O)[nH]1,"inconclusive: 29.1 µM [falling, single point]",–
O=C(Nc1ccccc1Cl)C1CCN(S(=O)(=O)c2cccc3nonc23)CC1,"inconclusive: 20.6 µM [falling, single point]",–
CC1(C)Cc2c(sc3nc(-c4cccs4)n(N)c(=O)c23)CO1,"inconclusive: 29.1 µM [falling, single point]",–
O=C(CSc1nc2ccccc2c(=O)[nH]1)Nc1nc(-c2ccc(Br)cc2)cs1,"inconclusive: 29.1 µM [falling, single point]",–
Cc1noc(C)c1COc1cccc(C(=O)NCc2cccc(Cl)c2)c1,"inconclusive: 16.4 µM [falling, partial curve, poor fit]",–
Cc1nn(-c2cccc(Cl)c2)c2nc(-c3ccncc3)cc(C(=O)N3CCOCC3)c12,"inconclusive: 29.1 µM [falling, single point]",–
CCCS(=O)(=O)Nc1cc(-c2cn3ccc(C)cc3n2)ccc1C,"inconclusive: 5.17 µM [activator, full curve]",–
O=C(Nc1ccc2nc(SCC(=O)N3CCCc4ccccc43)sc2c1)c1ccc(Cl)cc1,"inconclusive: 5.17 µM [falling, full curve, poor fit]",–
Cc1ccc(Nc2cc(C)nn2-c2nc(C)cc(=O)[nH]2)cc1,active: 1.78 µM,–
Nc1cc(C2CCCC2)nn1-c1ccccc1,"inconclusive: 13 µM [activator, partial curve]",–
Cc1ccccc1-c1noc(-c2nnn(-c3ccccc3C)c2N)n1,"inconclusive: 6.51 µM [activator, partial curve, poor fit]",–
Cc1cc(C)cc(N(CC(=O)NCCSCc2ccccc2)S(C)(=O)=O)c1,"inconclusive: 20.6 µM [falling, partial curve, poor fit]",–
O=C(NCCN1CCN(c2ccccc2)CC1)c1ccc2c(c1)[nH]c(=S)n1c3ccccc3nc21,"inconclusive: 20.6 µM [activator, partial curve, poor fit]",–
O=C(CCl)NC1CCCc2ccccc21 (stereo unspecified),"inconclusive: 29.1 µM [falling, partial curve, poor fit]",–
Cc1cccc(NC(=S)NC(NC(=O)c2ccco2)C(Cl)(Cl)Cl)c1 (stereo unspecified),"inconclusive: 14.6 µM [falling, partial curve, poor fit]",–
Cc1ccc(CNC(=O)C2CCCN(c3ncnc4onc(-c5ccc(F)cc5)c34)C2)cc1 (stereo unspecified),"inconclusive: 29.1 µM [activator, single point]",–
Cc1ccc(S(=O)(=O)N2CCOCC2)cc1C(=O)NCc1ccc(F)cc1,"inconclusive: 14.6 µM [falling, single point]",–
CCc1ccc(NC(=O)c2n[nH]c(=O)c3ccccc23)cc1,"inconclusive: 1.84 µM [activator, full curve]",–
Cc1nc(N)nc(N)c1-c1ccc([N+](=O)[O-])cc1,"inconclusive: 29.1 µM [falling, single point]",–
Cc1ccc(NC(=O)COc2ccc(-c3nnco3)cc2)cc1S(=O)(=O)N1CCOCC1,active: 23.1 µM,–
CC12C(=O)N(c3nccs3)C(=O)C1C1C=CC2C1 (stereo unspecified),"inconclusive: 11.6 µM [activator, partial curve, poor fit]",–

# Single records (already shown). Order of values: Potency | activity change, negative = inhibition
# O=C(CSc1nc2ccccc2c(=O)[nH]1)Nc1nc(-c2ccc(Br)cc2)cs1 in the list: inconclusive: 29.1 µM [falling, single point] | –
# COc1cc([N+](=O)[O-])ccc1NC(=O)Nc1ccc2c(c1)OCCO2 in the list: inconclusive: 18.4 µM [falling, single point] | –
# Cc1ccc(-n2ncc3c(=O)n(CC#N)cnc32)cc1 in the list: inconclusive: 23.1 µM [activator, partial curve, poor fit] | –

# (continued)

Structure (SMILES),Potency,"activity change, negative = inhibition"
Cc1ccc(OCCn2cc(/C=N/NC(=O)c3ccncc3)c3ccccc32)cc1,"inconclusive: 20.6 µM [falling, partial curve]",–
O=C(CCNC(=O)c1ccco1)Nc1ccc(Cl)c(C(F)(F)F)c1,"inconclusive: 29.1 µM [falling, single point]",–
COc1ccc(OC)c(NC(=O)Cn2c(=O)cc(C)c3c(C)nn(-c4cccc(Cl)c4C)c32)c1,active: 20.6 µM,–
COc1ccccc1C(=O)NC(=S)Nc1ccc(N2CCN(C(=O)c3ccco3)CC2)cc1,active: 20.6 µM,–
Cc1cc(OCC(=O)NC(C)(C)C)ccc1Cl,"inconclusive: 5.8 µM [activator, partial curve, poor fit]",–
Cc1ccc(CN2CCN(C(=O)c3cccc4ccccc34)CC2)cc1,"inconclusive: 18.4 µM [falling, single point]",–
COc1ccc2nc(Nc3sc4c(c3C(N)=O)CCCC4)sc2c1,"inconclusive: 16.4 µM [activator, partial curve, poor fit]",–
O=C(CN1C(=O)CCSc2ccccc21)Nc1ccc(C(F)(F)F)cc1,–,inactive: -29.5%
O=C(O)c1cc(N/N=C/c2ccc(OCc3ccccc3)cc2)ccc1Cl,"inconclusive: 11.6 µM [activator, partial curve]",–
Oc1ccc(CCNc2c3ccccc3nc3ccccc23)cc1O,"inconclusive: 29.1 µM [activator, single point]",–
Cc1c(Cl)cccc1-c1ccc(/C=C(\C#N)c2nc3ccccc3[nH]2)o1,"inconclusive: 29.1 µM [falling, single point]",–
COc1ccc(S(=O)(=O)N2c3ccccc3OCC2c2ccccc2)cc1 (stereo unspecified),"inconclusive: 20.6 µM [falling, partial curve, poor fit]",–
Cc1ccccc1N1CCN(C(=S)c2ccc([N+](=O)[O-])cc2)CC1,–,inactive: -12.8%
COCCNC(=S)Nc1cccc2cnccc12,"inconclusive: 23.1 µM [falling, single point]",–
O=C(NCCCN1CCOCC1)/C(=C/c1cccs1)NC(=O)c1ccccc1,"inconclusive: 6.51 µM [activator, full curve]",–
O=c1cc(-c2ccc(F)cc2)oc2ccccc12,–,inactive: 11%
Nc1nonc1C(=O)NCCNC(=O)c1cccc(Cl)c1,"inconclusive: 29.1 µM [falling, single point]",–
COc1ccc(C(=O)NCCn2ccc3ccccc32)cc1,"inconclusive: 2.59 µM [activator, partial curve]",–
CC(/C=C/c1ccccc1)=N\NC(N)=S,–,inactive: 1.86%
CCOC(=O)N1CCC(NC(=O)CSCc2nc(-c3cccc(OC)c3)oc2C)CC1,active: 18.4 µM,–
CCNc1nc2c(c(=O)[nH]c(=O)n2C)n1CC(C)C,–,inactive: -8.07%
CCN(CC)c1ccc(NS(=O)(=O)c2cc(-c3cc(C)no3)ccc2C)c(C)c1,"inconclusive: 5.8 µM [falling, partial curve]",–
